Article doi:10.1101/723718
Results are given in words; binding and its absence hold for the method and conditions named. In cells and extracts the contact can be indirect. Some entries that bind do so weakly or less than the wild type.

Sequences of proteins named here, by UniProt entry; tags and fusion partners are left off. Residues count along the entry.
UniProt O14763, residues 56-440: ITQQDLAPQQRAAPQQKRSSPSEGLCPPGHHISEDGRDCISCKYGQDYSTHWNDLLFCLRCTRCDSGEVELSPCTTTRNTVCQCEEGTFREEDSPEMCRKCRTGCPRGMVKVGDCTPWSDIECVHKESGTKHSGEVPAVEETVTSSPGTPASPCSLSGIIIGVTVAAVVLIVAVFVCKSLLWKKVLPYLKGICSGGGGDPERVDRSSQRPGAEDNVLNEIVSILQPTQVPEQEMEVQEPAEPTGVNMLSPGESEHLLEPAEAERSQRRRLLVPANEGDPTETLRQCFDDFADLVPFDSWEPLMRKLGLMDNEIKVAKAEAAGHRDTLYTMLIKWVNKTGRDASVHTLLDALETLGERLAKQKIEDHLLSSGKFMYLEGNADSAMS
UniProt Q13158: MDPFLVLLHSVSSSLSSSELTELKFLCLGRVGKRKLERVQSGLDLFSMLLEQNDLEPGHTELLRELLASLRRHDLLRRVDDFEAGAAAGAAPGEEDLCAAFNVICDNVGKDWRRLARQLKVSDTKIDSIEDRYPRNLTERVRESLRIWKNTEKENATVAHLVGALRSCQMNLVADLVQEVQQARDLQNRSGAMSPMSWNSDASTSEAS
UniProt Q13546: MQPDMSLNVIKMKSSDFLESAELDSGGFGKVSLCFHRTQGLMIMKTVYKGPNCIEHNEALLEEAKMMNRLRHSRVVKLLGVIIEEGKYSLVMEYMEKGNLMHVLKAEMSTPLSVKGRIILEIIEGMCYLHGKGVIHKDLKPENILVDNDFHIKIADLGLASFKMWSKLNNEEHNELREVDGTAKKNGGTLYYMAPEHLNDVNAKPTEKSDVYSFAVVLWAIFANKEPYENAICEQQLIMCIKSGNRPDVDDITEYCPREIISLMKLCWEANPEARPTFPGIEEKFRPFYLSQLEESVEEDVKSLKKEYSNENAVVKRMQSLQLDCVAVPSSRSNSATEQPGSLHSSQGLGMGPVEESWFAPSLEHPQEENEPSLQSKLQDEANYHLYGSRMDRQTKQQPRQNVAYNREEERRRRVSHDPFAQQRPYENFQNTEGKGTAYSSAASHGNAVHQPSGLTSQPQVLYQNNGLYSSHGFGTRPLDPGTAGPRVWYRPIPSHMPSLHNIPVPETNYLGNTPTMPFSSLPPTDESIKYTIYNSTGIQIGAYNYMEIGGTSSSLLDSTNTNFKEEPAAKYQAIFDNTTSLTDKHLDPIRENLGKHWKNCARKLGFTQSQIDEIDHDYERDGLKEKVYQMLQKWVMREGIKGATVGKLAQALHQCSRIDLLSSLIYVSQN
UniProt P63208: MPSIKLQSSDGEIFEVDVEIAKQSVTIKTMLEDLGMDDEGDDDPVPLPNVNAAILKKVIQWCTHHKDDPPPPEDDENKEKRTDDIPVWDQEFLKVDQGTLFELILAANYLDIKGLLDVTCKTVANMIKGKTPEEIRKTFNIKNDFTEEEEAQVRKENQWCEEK
UniProt Q13616: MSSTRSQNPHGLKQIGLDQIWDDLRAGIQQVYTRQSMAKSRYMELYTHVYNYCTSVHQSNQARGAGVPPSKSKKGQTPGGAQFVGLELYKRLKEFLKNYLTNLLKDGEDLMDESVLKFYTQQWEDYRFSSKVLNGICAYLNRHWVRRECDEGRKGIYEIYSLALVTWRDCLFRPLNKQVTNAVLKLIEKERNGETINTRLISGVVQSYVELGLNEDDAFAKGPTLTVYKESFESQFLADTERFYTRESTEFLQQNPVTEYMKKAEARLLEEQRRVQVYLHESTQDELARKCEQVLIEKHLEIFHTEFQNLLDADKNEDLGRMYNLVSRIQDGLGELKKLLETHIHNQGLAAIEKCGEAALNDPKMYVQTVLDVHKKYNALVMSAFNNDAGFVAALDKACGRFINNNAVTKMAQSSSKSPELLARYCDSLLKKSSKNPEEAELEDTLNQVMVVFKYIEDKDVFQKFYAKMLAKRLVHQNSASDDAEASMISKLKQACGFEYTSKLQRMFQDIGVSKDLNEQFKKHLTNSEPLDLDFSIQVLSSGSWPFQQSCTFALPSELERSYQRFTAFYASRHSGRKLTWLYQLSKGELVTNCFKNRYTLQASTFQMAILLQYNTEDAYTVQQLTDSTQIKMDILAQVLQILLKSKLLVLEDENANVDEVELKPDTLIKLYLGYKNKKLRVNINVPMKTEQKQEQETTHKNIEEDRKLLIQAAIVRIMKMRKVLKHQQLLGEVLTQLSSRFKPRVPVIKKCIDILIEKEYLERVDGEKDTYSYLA
UniProt Q14790: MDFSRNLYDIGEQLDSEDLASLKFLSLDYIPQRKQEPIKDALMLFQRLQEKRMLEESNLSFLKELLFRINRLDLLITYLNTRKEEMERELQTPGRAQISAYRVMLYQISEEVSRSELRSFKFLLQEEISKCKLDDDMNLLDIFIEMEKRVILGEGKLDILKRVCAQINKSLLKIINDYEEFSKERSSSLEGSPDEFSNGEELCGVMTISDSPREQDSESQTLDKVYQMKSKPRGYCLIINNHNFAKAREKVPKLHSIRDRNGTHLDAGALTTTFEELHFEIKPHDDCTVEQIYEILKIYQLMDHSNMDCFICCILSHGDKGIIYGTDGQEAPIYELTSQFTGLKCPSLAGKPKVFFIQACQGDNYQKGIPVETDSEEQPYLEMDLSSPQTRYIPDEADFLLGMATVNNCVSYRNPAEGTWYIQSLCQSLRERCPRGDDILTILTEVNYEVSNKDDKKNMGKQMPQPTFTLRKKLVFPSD

Molecular target: TRAIL-R2 (DR5), endogenous on HCT116 cells (human (endogenous in HCT116)) (UniProt O14763)
Test: co-IP

Row | Substance | binding
1 | endogenous FADD (from UniProt Q13158 1-208) | binds
2 | endogenous RIPK1 (from UniProt Q13546 1-671) | binds
3 | endogenous Skp1 (from UniProt P63208 1-163) | binds

Molecular target: Myc-tagged Cullin-1 (UniProt Q13616)
Test: co-IP

Row | Substance | binding
4 | endogenous FADD (from UniProt Q13158 1-208) | no binding
5 | FADD (overexpressed, Figure 4C) (from UniProt Q13158 1-208) | no binding
6 | endogenous caspase-8 (from UniProt Q14790 1-479) | no binding
7 | Flag-tagged procaspase-8 (from UniProt Q14790 1-479) | no binding
